Reference: publication PMC12670160, “A drug-repurposing screen of FDA- and EMA-approved drugs identifies two NF-κB inhibitors active against eumycetoma” (Journal of Antimicrobial Chemotherapy, 2025)
Counter-ions that a name gives are not always drawn. About 130 (2.5%) of roughly 5,300 compounds showed an effect of 50% or more. This is one part of the list.

Each molecule was assayed on M. mycetomatis strain mm55. Details: primary screen, metabolic activity vs growth control; 96 h, 2 µM; inhibitor.

SMILES | % viability
O=C(O)Cc1cccc2c(=O)cc(-c3ccccc3)oc12 [ONC0003869, 4oxo2phenyl4hchromen8ylacetic acid] | 56.65%
O=[N+]([O-])c1c(Nc2cc(F)cc(Cl)c2)ccc2nonc12 [ONC0003032, tcs7009] | 67.33%
CCCSc1ccc2nc(NC(=O)OC)[nH]c2c1 [ONC0002437, albendazole] | 105.9%
CCC(=O)O[C@]1(C(=O)CO)CC[C@H]2[C@@H]3CCC4=CC(=O)CC[C@]4(C)[C@H]3CC[C@@]21C [ONC0000901, clascoterone] | 68.84%
NC(=NCc1ccc(Cl)cc1)SCCCc1cnc[nH]1 [ONC0002491, clobenpropit] | 94.75%
CN1CCN(c2nc3ccccc3nc2Cl)CC1 [ONC0004494, vuf 10166] | 100.6%
O=C(/C=C/c1c(C(=O)O)[nH]c2cc(Cl)cc(Cl)c12)Nc1ccccc1 [ONC0003531, gavestinel] | 108.3%
CC(C)c1c(NC(=O)Nc2ccc(Cl)cc2)c(=O)n(-c2ccccc2)n1C [ONC0001909, tcfpr43] | 60.36%
C[C@@H]1COC(Nc2ccc3ncnc(Nc4ccc(OCc5nccs5)c(Cl)c4)c3c2)=N1 [ONC0005018, varlitinib] | 90.25%
O=C(O)/C=C/CO [ONC0000264, trans4hydroxycrotonicacid] | 66.04%
O=C(/C=C/c1ccc(O)c(O)c1)O[C@@H]1C[C@](O)(C(=O)O)C[C@@H](O)[C@H]1O [ONC0004960, chlorogenic acid] | 87.22%
C[N+]1(C)C2CC[C@H]1C[C@@H](OC(=O)C(O)c1ccccc1)C2 (stereo partly drawn) [ONC0000437, homatropine methylbromide] | 73.59%
CCCCC(=O)NCCc1c(Cc2ccccc2)[nH]c2ccccc12 [ONC0000239, dh97] | 81.02%
CCC[C@@]1(CCc2ccccc2)CC(O)=C([C@H](CC)c2cccc(NS(=O)(=O)c3ccc(C(F)(F)F)cn3)c2)C(=O)O1 [ONC0000841, tipranavir] | 94.16%
Cc1cc2c(C(C)C)c(O)c(O)c(C=O)c2c(O)c1-c1c(C)cc2c(C(C)C)c(O)c(O)c(C=O)c2c1O [ONC0002567, gossypol] | 85.72%
C=CCOC(Cn1ccnc1)c1ccc(Cl)cc1Cl (stereo not drawn) [ONC0005416, enilconazole sulfate] | 2.508%
CC1(C)[C@@H](OC(=O)CCC(=O)O)CC[C@]2(C)[C@H]3C(=O)C=C4[C@@H]5C[C@@](C)(C(=O)O)CC[C@]5(C)CC[C@@]4(C)[C@]3(C)CC[C@@H]12 [ONC0000604, carbenoxolone sodium] | 49.18%
O=C(O[C@H]1CN2CCC1CC2)N(Cc1cc(F)c(F)c(F)c1)c1cccc(F)c1 [ONC0001087, tarafenacin dtartrate] | 72.82%
O=C(/C=C/c1ccccc1)NCCO [ONC0003639, n2hydroxyethyl3phenylacrylamide] | 106%

SMILES | % viability
N#C/C(=C\c1ccc(O)c(O)c1)C(=O)NCc1ccccc1 [ONC0001637, ag490] | 81.36%
C#C[C@]1(O)CC[C@H]2[C@@H]3CCC4=CC(=O)CC[C@@H]4[C@H]3CC[C@@]21CC [ONC0004187, levonorgestrel] | 62.14%
Cc1cc(SCc2sc(-c3ccc(C(F)(F)F)cc3)nc2C)ccc1OCC(=O)O [ONC0001821, gw 501516] | 81.58%
Cc1cc(C(=O)Nc2cccc(C(=O)Nc3cccc(C(F)(F)F)c3)c2)on1 [ONC0003093, t5601640] | 84.6%
COc1cc2c(cc1F)C(c1ccccc1Cl)=Nc1c(n[nH]c1C)N2 [ONC0000932, r1530] | 66.47%
CC(=O)OCC(=O)[C@H]1CC[C@H]2[C@@H]3CCC4=CC(=O)CC[C@]4(C)[C@H]3CC[C@]12C [ONC0003291, desoxycorticosterone acetate] | 95.35%
Cn1cc(-c2ccc3c(c2)CCN3C(=O)Cc2cccc(C(F)(F)F)c2)c2c(N)ncnc21 [ONC0001550, gsk2606414] | 70.45%
Oc1cccc(-c2nc(N3CCOCC3)c3oc4ncccc4c3n2)c1 [ONC0001440, pi103] | 59.86%
O=c1[nH]c2ccccc2n1C1CCN(CCCC(c2ccc(F)cc2)c2ccc(F)cc2)CC1 [ONC0000675, pimozide] | 106.9%
Fc1ccc(-c2c3cccc(C(F)(F)F)c3nn2Cc2ccc(F)cc2Cl)cc1 [ONC0001311, lxr623] | 57.61%
COC(=O)Nc1ccc2[nH]cc(CCNC(C)=O)c2c1 [ONC0000091, gr135531] | 120.1%
CC(C)(C)[C@H]1CC[C@H](CC2=C(O)C(=O)c3ccccc3C2=O)CC1 [ONC0001005, buparvaquone] | 96.95%
Nc1nc2c(ncn2CCC(CO)CO)c(=O)[nH]1 [ONC0004184, penciclovir] | 55.12%
CCCOc1ccc(C(=O)OCCN(CC)CC)cc1N [ONC0004850, proparacaine hcl] | 112.8%
CCOC(=O)[C@H](Cc1ccccc1)NC(=O)c1cc(Cl)c(OCCN2CCN(C)CC2)c(Cl)c1O [ONC0000249, jte607] | 72.89%
Cc1cc(C)c(S(=O)(=O)Nc2cccc(C(F)(F)F)c2)c(C)c1 [ONC0001400, m3m3fbs] | 100.9%
CCN(CC)CCOCCOC(=O)C(CC)(CC)c1ccccc1 [ONC0003992, oxelaidin citrate] | 89.02%
FC(F)(F)c1cccc(C2=CCN(CCc3ccc4ccccc4c3)CC2)c1 [ONC0001253, xaliproden] | 100.2%
O=C(CCCS)NC1CCN(C(=O)COc2ccc(Cl)cc2Cl)CC1 [ONC0005166, krasg12c inhibitor 6] | 98.75%

Individual results from the entries so far.
Entry for `N#C/C(=C\c1ccc(O)c(O)c1)C(=O)NCc1ccccc1` [ONC0001637, ag490] under % viability: 81.36%
Entry for `COC(=O)Nc1ccc2[nH]cc(CCNC(C)=O)c2c1` [ONC0000091, gr135531] under % viability: 120.1%

(list continues)

SMILES | % viability
CC(=O)OCC(=O)[C@@]1(OC(C)=O)[C@@H](C)C[C@H]2[C@@H]3C[C@H](F)C4=CC(=O)C=C[C@]4(C)[C@@]3(F)[C@@H](O)C[C@@]21C [ONC0003433, diflorasone diacetate] | 66.72%
O=c1ccc2[nH]cc(C3=CCNCC3)c2[nH]1 [ONC0001485, cp93129] | 69.11%
CCC(=O)O[C@@H]1CC(=O)O[C@H](C)C/C=C/C=C/[C@H](OC(C)=O)[C@H](C)C[C@H](CC=O)[C@H](O[C@@H]2O[C@H](C)[C@@H](O[C@H]3C[C@@](C)(OC(C)=O)[C@@H](OC(=O)CC)[C@H](C)O3)[C@H](N(C)C)[C@H]2O)[C@H]1OC [ONC0000277, midecamycin acetate] | 81.75%
CC1=C(/C=C/C(=C/C=C/C(C)=C/C(=O)O)c2ccc(C)cc2)C(C)(C)CCC1 [ONC0003076, sr11302] | 63.44%
O=C(NCCN1CCCCC1)c1ccc(I)cc1 [ONC0002639, n2piperidinylaminoethyl4iodobenzamide] | 95.31%
CC1(C)Oc2ccc(C#N)cc2[C@@H](N2CCCC2=O)[C@@H]1O.CC1(C)Oc2ccc(C#N)cc2[C@H](N2CCCC2=O)[C@H]1O [ONC0001708, levcromakalim] | 57.98%
CC(C)C[C@H](NC(=O)CNC(=O)c1cc(Cl)ccc1Cl)B1OC(=O)C(CC(=O)O)(CC(=O)O)O1 [ONC0000714, ixazomib citrate] | 66.66%
CC[C@@H](CO)NCCN[C@@H](CC)CO [ONC0000706, ethambutol hydrochloride] | 87.95%
C=CCN1CC[C@]23CCCC[C@H]2[C@H]1Cc1ccc(O)cc13 [ONC0002007, levallorphan tartrate] | 94.62%
C[C@]1(Cn2ccnn2)[C@H](C(=O)O)N2C(=O)C[C@H]2S1(=O)=O [ONC0004112, tazobactam] | 92.99%
CC(CN(C)C)C(C)(O)Cc1ccc(Cl)cc1 (stereo not drawn) [ONC0002346, clobutinol] | 81.15%
CCN(CC)CCCCNc1ncc2cc(-c3cc(OC)cc(OC)c3)c(NC(=O)NC(C)(C)C)nc2n1 [ONC0004651, pd173074] | 82.26%
Nc1ncnc2c1c(COc1cccc(Cl)c1)nn2C1CCOCC1 [ONC0002547, pf4800567] | 64.88%
COCCOc1ccc(N2CCN(CCn3ncc4c3nc(N)n3nc(-c5ccco5)nc43)CC2)cc1 [ONC0002031, preladenant] | 74.73%
Cc1cc(-c2ccc(/N=N/c3ccc4c(S(=O)(=O)O)cc(S(=O)(=O)O)c(N)c4c3O)c(C)c2)ccc1/N=N/c1ccc2c(S(=O)(=O)O)cc(S(=O)(=O)O)c(N)c2c1O [ONC0003296, evans blue] | 49.05%
NC(=O)CC[C@@H]1NC(=O)[C@H](Cc2ccccc2)NC(=O)[C@H](Cc2ccc(O)cc2)NC(=O)[C@@H](N)CSSC[C@@H](C(=O)N2CCC[C@H]2C(=O)N[C@H](CCCN=C(N)N)C(=O)NCC(N)=O)NC(=O)[C@H](CC(N)=O)NC1=O [ONC0003831, argipressine] | 67.57%
CNC(=N)NCCC[C@H](N)C(=O)O [ONC0003791, targinine] | 61.21%
C/C=C/C/C=C/CCC(=O)[C@H]1O[C@H]1C(N)=O [ONC0005470, cerulenin] | 138.4%
CC(=O)NCCc1c[nH]c2ccccc12 [ONC0000123, nacetyltryptamine] | 91.61%
